Data as given in PubChem BioAssay AID1259308 (NCATS, 2017)

Assay: 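Genes whose loss raises luciferase production in HEK293 cells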 (primary screen)
Cells: human HEK293 embryonic kidney cells stably expressing firefly luciferase (HEK-CMV-Luc2-Hygro)
Reagent: single siRNA against human genes, 0.8 pmol siRNA per well
Time to read-out: 72 h
Read-out: 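Reporter luminescence and viable-cell signal on separate replicate plates, given as percent of non-targeting control and median/MAD z-scores, plus per-cell luciferase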
Direction: total luciferase, z-score and total luciferase, % of control: higher = more reporter protein produced; luciferase per cell, z-score: higher = more reporter output per viable cell; viable cells, % of control: higher = more viable cells
Active means: 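Active when the median/MAD z-score for overall luciferase is greater than 3; a gene was taken forward for validation with new siRNAs if at least two of its three siRNAs passed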
Calls: active = raised luciferase; inactive = no rise
The deposit covers about 59,000 reagents; below is a random part of them. About 1,510 of them (2.6%) count as active. 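Calls use total luciferase alone and ignore viability, so some active siRNAs may act by altering cell number.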 Reagents against one gene are numbered here.

gene,reagent no.,"total luciferase, z-score","total luciferase, % of control","luciferase per cell, z-score","viable cells, % of control",Call
OPRD1,1,-0.786,66.2,-0.0689,75.4,inactive
OPRD1,2,-0.711,67.7,-1.03,99.2,inactive
OPRD1,3,-1.25,57,-1.25,88.5,inactive
HNRNPR,1,0.905,99.9,2.07,64.8,inactive
HNRNPR,2,-0.508,71.8,-0.537,92.4,inactive
HNRNPR,3,-0.34,75.1,-0.789,103,inactive
ING1,1,-1.13,59.4,-1.24,92.1,inactive
ING1,2,-0.947,63.1,0.229,66.3,inactive
ING1,3,2.22,126,1.7,90.1,inactive
CCDC43,1,-0.448,73,-0.632,96.3,inactive
CCDC43,2,2.48,131,1.54,97.8,inactive
CCDC43,3,1.02,102,0.725,94.3,inactive
SREK1IP1,1,1.39,110,3.92,43.7,inactive
SREK1IP1,2,-0.52,71.5,-0.679,95.6,inactive
SREK1IP1,3,-0.784,66.3,-0.913,94.2,inactive
COPS8,1,-0.474,72.5,0.0504,79.9,inactive
COPS8,2,-0.109,79.7,0.559,76.9,inactive
COPS8,3,-0.309,75.7,-0.334,92.4,inactive
TESK2,1,-0.664,68.7,-0.544,88.6,inactive
TESK2,2,1.39,109,0.387,110,inactive
TESK2,3,-0.587,70.2,0.00671,78.3,inactive
USP42,1,1.56,113,1.37,87.9,inactive
USP42,2,-0.412,73.7,-0.589,96.2,inactive
USP42,3,1.96,121,1.58,89.2,inactive
PRAF2,1,0.635,94.5,3.2,45.5,inactive
PRAF2,2,1.42,110,1.52,82.5,inactive
PRAF2,3,0.593,93.7,0.338,95.8,inactive
COPS7A,1,0.524,92.3,0.684,86.1,inactive
COPS7A,2,1.97,121,0.858,108,inactive
COPS7A,3,0.509,92,-0.00248,103,inactive
RLN3,1,0.49,91.6,-0.416,114,inactive
RLN3,2,0.0515,82.9,-0.109,95.3,inactive
RLN3,3,3.38,149,1.63,109,active
CMC2,1,0.837,98.5,0.611,93.7,inactive
CMC2,2,1.75,117,1.73,82.7,inactive
CMC2,3,-0.879,64.4,-0.716,86.9,inactive
SLC38A4,1,-1.39,54.2,-0.997,78.8,inactive
SLC38A4,2,1.66,115,0.666,108,inactive
SLC38A4,3,-0.329,75.3,-0.361,92.6,inactive
BTG2,1,-0.903,63.9,-1.06,94.5,inactive
BTG2,2,1.57,113,1.1,94.7,inactive
BTG2,3,0.78,97.4,-0.0174,109,inactive
YY2,1,-0.195,78,0.0516,86,inactive
YY2,2,0.0783,83.4,0.301,86.1,inactive
YY2,3,-1.97,42.8,0.0562,47.1,inactive
OR1Q1,1,-0.483,72.3,0.37,73.3,inactive
OR1Q1,2,-0.47,72.5,-0.0778,82.7,inactive
OR1Q1,3,0.428,90.4,0.437,90.1,inactive
RPS26P8,1,-2.6,30.1,-1.69,52.5,inactive
RPS26P8,2,0.403,89.9,0.25,94.1,inactive
RPS26P8,3,-0.342,75.1,-1.48,124,inactive
MCEE,1,-1.14,59.1,-1.11,88.5,inactive
MCEE,2,2.49,131,2.69,72.3,inactive
MCEE,3,0.0793,83.5,0.101,90.8,inactive
MAPK10,1,0.0237,82.4,-0.0457,93.1,inactive
MAPK10,2,-1.11,59.7,-1.72,105,inactive
MAPK10,3,2.37,129,1.46,98.2,inactive
